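Malaria parasite (P. falciparum) lines kept in red blood cells; parasite DNA is measured by SYBR Green fluorescence after lysis, 72 h after compound addition.
Each compound was titrated across a series from about 0.000037 to 29 µM.
The number is the fitted AC50, the concentration giving a half-maximal change in signal; a lower value means higher potency, whether the curve shows a decrease or an increase.
Calls follow the curve class and fit quality: every row here is inconclusive, covering signal-raising curves and weak, poorly fitted, partial or highest-dose-only inhibition curves.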

Values are in µM.
All entries here are filed as inconclusive.
These entries are mostly ones the record files as inconclusive; other results of the assay are not listed here.
Potencies fitted to partial, single-point or poorly fitting curves are rough.

| # | structure | condition | Potency (µM) | remark |
|---|---|---|---|---|
| 1 | `Cc1nc(Nc2ncc(C(=O)Nc3c(C)cccc3Cl)s2)cc(N2CCN(CCO)CC2)n1` | CP211 | 21.33 | inhibitor, single point |
| 2 | `Cc1nc(Nc2ncc(C(=O)Nc3c(C)cccc3Cl)s2)cc(N2CCN(CCO)CC2)n1` | PC15 | 17.78 | inhibitor, single point |
| 3 | `Cc1nc(Nc2ncc(C(=O)Nc3c(C)cccc3Cl)s2)cc(N2CCN(CCO)CC2)n1` | ATS95 | 15.85 | inhibitor, partial curve |
| 4 | `Cc1nc(Nc2ncc(C(=O)Nc3c(C)cccc3Cl)s2)cc(N2CCN(CCO)CC2)n1` | P94_40 | 8.912 | inhibitor, partial curve |
| 5 | `Cc1nc(Nc2ncc(C(=O)Nc3c(C)cccc3Cl)s2)cc(N2CCN(CCO)CC2)n1` | CP269 | 15.1 | inhibitor, single point |
| 6 | `Cc1nc(Nc2ncc(C(=O)Nc3c(C)cccc3Cl)s2)cc(N2CCN(CCO)CC2)n1` | CP191 | 17.78 | inhibitor, single point |
| 7 | `Cc1nc(Nc2ncc(C(=O)Nc3c(C)cccc3Cl)s2)cc(N2CCN(CCO)CC2)n1` | CP237 | 14.13 | inhibitor, single point |
| 8 | `Cc1nc(Nc2ncc(C(=O)Nc3c(C)cccc3Cl)s2)cc(N2CCN(CCO)CC2)n1` | CP286 | 11.22 | inhibitor, single point |
| 9 | `Cc1nc(Nc2ncc(C(=O)Nc3c(C)cccc3Cl)s2)cc(N2CCN(CCO)CC2)n1` | CP203 | 12 | inhibitor, partial curve |
| 10 | `Cc1nc(Nc2ncc(C(=O)Nc3c(C)cccc3Cl)s2)cc(N2CCN(CCO)CC2)n1` | CP252 | 14.13 | inhibitor, single point |
| 11 | `Cc1nc(Nc2ncc(C(=O)Nc3c(C)cccc3Cl)s2)cc(N2CCN(CCO)CC2)n1` | CP185 | 4.467 | inhibitor, partial curve |
| 12 | `Cc1nc(Nc2ncc(C(=O)Nc3c(C)cccc3Cl)s2)cc(N2CCN(CCO)CC2)n1` | W2 | 10.69 | inhibitor, partial curve, poor fit |
| 13 | `Cc1nc(Nc2ncc(C(=O)Nc3c(C)cccc3Cl)s2)cc(N2CCN(CCO)CC2)n1` | CP250 | 10 | inhibitor, single point |
| 14 | `Cc1nc(Nc2ncc(C(=O)Nc3c(C)cccc3Cl)s2)cc(N2CCN(CCO)CC2)n1` | HB3 | 12.59 | inhibitor, single point |
| 15 | `Cc1nc(Nc2ncc(C(=O)Nc3c(C)cccc3Cl)s2)cc(N2CCN(CCO)CC2)n1` | PC26 | 19.01 | inhibitor, single point |
| 16 | `Cc1nc(Nc2ncc(C(=O)Nc3c(C)cccc3Cl)s2)cc(N2CCN(CCO)CC2)n1` | ECU | 14.13 | inhibitor, single point |
| 17 | `Cc1nc(Nc2ncc(C(=O)Nc3c(C)cccc3Cl)s2)cc(N2CCN(CCO)CC2)n1` | DIV14 | 13.46 | inhibitor, partial curve, poor fit |
| 18 | `Cc1nc(Nc2ncc(C(=O)Nc3c(C)cccc3Cl)s2)cc(N2CCN(CCO)CC2)n1` | P93_24 | 14.13 | inhibitor, single point |
| 19 | `Cc1nc(Nc2ncc(C(=O)Nc3c(C)cccc3Cl)s2)cc(N2CCN(CCO)CC2)n1` | CP266 | 19.01 | inhibitor, single point |
| 20 | `Cc1nc(Nc2ncc(C(=O)Nc3c(C)cccc3Cl)s2)cc(N2CCN(CCO)CC2)n1` | CP194 | 13.46 | inhibitor, single point |
| 21 | `Cc1nc(Nc2ncc(C(=O)Nc3c(C)cccc3Cl)s2)cc(N2CCN(CCO)CC2)n1` | ATS189 | 10 | inhibitor, single point |
| 22 | `Cc1nc(Nc2ncc(C(=O)Nc3c(C)cccc3Cl)s2)cc(N2CCN(CCO)CC2)n1` | parasite line A | 17.78 | inhibitor, single point |
| 23 | `Cc1nc(Nc2ncc(C(=O)Nc3c(C)cccc3Cl)s2)cc(N2CCN(CCO)CC2)n1` | PAD | 12.59 | inhibitor, single point |
| 24 | `Cc1cc2c(C(C)C)c(O)c(O)c(C=O)c2c(O)c1-c1c(C)cc2c(C(C)C)c(O)c(O)c(C=O)c2c1O` | CP291 | 10.69 | inhibitor, partial curve |
| 25 | `Cc1cc2c(C(C)C)c(O)c(O)c(C=O)c2c(O)c1-c1c(C)cc2c(C(C)C)c(O)c(O)c(C=O)c2c1O` | CP325 | 16.94 | inhibitor, single point |
| 26 | `Cc1cc2c(C(C)C)c(O)c(O)c(C=O)c2c(O)c1-c1c(C)cc2c(C(C)C)c(O)c(O)c(C=O)c2c1O` | CP268 | 19.01 | inhibitor, single point |
| 27 | `Cc1cc2c(C(C)C)c(O)c(O)c(C=O)c2c(O)c1-c1c(C)cc2c(C(C)C)c(O)c(O)c(C=O)c2c1O` | CP266 | 15.1 | inhibitor, single point |
| 28 | `Cc1cc2c(C(C)C)c(O)c(O)c(C=O)c2c(O)c1-c1c(C)cc2c(C(C)C)c(O)c(O)c(C=O)c2c1O` | CP260 | 10 | inhibitor, single point |
| 29 | `Cc1cc2c(C(C)C)c(O)c(O)c(C=O)c2c(O)c1-c1c(C)cc2c(C(C)C)c(O)c(O)c(C=O)c2c1O` | HB3 | 12.59 | inhibitor, single point |
| 30 | `Cc1cc2c(C(C)C)c(O)c(O)c(C=O)c2c(O)c1-c1c(C)cc2c(C(C)C)c(O)c(O)c(C=O)c2c1O` | CP335 | 19.01 | inhibitor, single point |
| 31 | `Cc1cc2c(C(C)C)c(O)c(O)c(C=O)c2c(O)c1-c1c(C)cc2c(C(C)C)c(O)c(O)c(C=O)c2c1O` | 3D7 | 17.78 | inhibitor, single point |
| 32 | `Cc1cc2c(C(C)C)c(O)c(O)c(C=O)c2c(O)c1-c1c(C)cc2c(C(C)C)c(O)c(O)c(C=O)c2c1O` | CP286 | 11.22 | inhibitor, single point |

Repeated from the top, 2 entries:

{"structure": "Cc1nc(Nc2ncc(C(=O)Nc3c(C)cccc3Cl)s2)cc(N2CCN(CCO)CC2)n1", "condition": "CP211", "Potency (µM)": "21.33", "remark": "inhibitor, single point"}
{"structure": "Cc1nc(Nc2ncc(C(=O)Nc3c(C)cccc3Cl)s2)cc(N2CCN(CCO)CC2)n1", "condition": "PC15", "Potency (µM)": "17.78", "remark": "inhibitor, single point"}

Source: PubChem BioAssay AID504749 (NCATS, 2011).